{"sequences": {"note": "Amino acid sequences for entries named in this document (tags omitted). A change or cut given only in a name is not applied to a line headed by its entry. Residues count along the entry.", "full-length mouse polycystin-1 (PC1), wild-type (O08852, residues 24-4293)": "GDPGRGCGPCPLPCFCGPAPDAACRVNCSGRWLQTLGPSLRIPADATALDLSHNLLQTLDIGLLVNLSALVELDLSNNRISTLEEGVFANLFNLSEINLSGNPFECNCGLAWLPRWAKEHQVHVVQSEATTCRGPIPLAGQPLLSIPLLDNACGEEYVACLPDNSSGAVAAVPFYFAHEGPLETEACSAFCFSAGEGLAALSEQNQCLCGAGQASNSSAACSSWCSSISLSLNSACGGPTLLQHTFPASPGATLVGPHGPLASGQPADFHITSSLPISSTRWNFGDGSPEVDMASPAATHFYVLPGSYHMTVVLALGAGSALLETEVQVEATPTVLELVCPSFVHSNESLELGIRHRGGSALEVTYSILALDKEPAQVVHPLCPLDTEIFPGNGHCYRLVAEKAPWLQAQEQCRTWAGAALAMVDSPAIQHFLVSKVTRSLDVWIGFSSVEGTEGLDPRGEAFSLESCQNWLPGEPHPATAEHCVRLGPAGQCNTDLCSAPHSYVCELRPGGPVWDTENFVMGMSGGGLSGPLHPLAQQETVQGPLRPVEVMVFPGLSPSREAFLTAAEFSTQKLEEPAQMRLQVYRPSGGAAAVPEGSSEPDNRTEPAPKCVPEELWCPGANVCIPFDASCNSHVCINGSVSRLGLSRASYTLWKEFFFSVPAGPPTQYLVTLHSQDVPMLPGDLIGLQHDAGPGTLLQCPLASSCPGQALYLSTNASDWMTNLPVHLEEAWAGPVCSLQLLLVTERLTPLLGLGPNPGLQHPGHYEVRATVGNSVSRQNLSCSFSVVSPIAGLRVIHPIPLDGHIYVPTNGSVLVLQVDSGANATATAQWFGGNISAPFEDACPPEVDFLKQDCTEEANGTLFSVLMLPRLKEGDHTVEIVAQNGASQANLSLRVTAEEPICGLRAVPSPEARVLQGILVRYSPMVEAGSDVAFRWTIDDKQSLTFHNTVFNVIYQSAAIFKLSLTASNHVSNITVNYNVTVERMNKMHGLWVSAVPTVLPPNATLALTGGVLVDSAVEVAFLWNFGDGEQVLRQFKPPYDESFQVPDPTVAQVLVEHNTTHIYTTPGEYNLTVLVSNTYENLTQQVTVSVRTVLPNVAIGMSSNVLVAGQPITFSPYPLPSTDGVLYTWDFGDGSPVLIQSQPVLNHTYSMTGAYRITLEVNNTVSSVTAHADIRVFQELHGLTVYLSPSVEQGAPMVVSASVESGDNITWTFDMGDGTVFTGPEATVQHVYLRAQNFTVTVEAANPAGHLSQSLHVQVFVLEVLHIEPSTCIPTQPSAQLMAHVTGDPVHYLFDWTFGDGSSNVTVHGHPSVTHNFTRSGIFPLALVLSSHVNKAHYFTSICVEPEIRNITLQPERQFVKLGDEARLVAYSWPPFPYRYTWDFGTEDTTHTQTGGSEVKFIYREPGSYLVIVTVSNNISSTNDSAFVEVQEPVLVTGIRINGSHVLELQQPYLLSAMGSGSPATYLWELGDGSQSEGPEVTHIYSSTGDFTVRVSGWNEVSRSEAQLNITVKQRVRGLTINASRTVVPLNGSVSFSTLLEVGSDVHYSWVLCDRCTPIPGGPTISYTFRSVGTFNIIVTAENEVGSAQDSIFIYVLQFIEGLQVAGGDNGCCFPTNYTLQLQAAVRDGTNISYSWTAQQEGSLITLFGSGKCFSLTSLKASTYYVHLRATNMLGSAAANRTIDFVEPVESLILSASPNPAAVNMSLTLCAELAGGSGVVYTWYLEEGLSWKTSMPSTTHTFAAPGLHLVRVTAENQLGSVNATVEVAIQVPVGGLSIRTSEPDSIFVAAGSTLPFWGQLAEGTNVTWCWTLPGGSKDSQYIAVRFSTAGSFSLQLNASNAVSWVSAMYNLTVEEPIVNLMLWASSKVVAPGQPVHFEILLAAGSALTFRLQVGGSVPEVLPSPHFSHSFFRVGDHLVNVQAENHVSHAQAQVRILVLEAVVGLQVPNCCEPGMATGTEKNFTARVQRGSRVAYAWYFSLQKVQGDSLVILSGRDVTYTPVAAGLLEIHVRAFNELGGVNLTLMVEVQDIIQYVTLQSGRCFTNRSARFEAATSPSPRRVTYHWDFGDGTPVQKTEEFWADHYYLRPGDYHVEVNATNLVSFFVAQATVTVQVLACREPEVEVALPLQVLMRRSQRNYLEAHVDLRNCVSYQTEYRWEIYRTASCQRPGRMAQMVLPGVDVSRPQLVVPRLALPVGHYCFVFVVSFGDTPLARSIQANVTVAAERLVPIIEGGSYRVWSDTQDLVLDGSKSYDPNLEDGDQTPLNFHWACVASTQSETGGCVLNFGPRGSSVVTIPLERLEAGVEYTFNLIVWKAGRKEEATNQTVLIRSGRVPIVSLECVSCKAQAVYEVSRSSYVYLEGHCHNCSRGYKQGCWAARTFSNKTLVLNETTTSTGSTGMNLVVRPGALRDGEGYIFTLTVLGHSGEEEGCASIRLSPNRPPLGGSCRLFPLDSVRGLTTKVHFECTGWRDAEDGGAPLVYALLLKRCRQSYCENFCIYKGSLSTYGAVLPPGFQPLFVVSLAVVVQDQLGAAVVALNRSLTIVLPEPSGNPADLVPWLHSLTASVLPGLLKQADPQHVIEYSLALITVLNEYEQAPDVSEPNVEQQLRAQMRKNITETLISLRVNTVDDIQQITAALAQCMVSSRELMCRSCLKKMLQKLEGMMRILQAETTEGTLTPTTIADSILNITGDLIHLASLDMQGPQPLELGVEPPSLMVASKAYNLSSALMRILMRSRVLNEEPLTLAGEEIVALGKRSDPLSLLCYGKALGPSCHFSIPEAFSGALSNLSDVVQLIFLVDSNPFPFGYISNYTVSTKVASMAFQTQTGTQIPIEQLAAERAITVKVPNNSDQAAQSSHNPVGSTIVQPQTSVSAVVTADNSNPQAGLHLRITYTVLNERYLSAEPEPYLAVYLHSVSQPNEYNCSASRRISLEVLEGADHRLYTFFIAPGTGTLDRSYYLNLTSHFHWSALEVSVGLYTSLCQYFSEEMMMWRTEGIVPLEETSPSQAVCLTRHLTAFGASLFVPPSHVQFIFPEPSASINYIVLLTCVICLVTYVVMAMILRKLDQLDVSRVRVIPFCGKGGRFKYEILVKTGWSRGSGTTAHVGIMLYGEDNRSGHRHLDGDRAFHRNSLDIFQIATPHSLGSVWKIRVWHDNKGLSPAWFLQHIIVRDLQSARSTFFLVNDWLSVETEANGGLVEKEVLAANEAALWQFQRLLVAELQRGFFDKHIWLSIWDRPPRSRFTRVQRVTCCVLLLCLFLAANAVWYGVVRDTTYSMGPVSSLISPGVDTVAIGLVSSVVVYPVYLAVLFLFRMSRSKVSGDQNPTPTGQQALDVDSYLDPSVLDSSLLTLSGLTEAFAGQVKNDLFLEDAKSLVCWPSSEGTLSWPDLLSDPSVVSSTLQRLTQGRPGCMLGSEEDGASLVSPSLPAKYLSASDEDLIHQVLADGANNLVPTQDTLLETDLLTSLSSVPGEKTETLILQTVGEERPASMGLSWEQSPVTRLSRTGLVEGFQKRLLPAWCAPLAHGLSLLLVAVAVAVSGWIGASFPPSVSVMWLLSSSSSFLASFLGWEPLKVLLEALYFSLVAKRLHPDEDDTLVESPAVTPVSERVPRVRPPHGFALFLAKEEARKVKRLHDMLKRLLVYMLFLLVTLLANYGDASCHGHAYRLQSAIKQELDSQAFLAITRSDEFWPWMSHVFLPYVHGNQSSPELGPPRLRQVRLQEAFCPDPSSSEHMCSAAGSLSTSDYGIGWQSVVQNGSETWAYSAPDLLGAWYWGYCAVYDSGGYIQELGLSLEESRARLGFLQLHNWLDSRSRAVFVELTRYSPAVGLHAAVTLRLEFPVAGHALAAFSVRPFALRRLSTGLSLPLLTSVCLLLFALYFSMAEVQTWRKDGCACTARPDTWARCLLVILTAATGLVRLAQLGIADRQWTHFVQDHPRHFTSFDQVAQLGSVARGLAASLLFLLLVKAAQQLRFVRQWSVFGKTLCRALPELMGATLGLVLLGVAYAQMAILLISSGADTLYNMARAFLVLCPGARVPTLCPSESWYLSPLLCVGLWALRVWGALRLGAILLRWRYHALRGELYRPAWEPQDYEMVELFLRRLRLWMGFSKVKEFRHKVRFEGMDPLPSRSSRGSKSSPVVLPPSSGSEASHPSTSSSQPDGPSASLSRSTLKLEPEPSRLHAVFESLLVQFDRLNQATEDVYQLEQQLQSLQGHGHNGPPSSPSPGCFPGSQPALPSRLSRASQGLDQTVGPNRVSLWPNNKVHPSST"}, "source": "paper PMC4999191", "key": {"[1]": {"biological_target": "full-length mouse polycystin-1 (PC1), wild-type (mouse) (UniProt O08852)", "assay": "co-IP; PC2 co-expressed with wild-type or S4134D full-length mouse PC1 in HEK293T cells; co-immunoprecipitation from lysates"}, "[2]": {"biological_target": "full-length mouse polycystin-1 (PC1) S4134D (mouse) (UniProt O08852)", "assay": "co-IP; PC2 co-expressed with wild-type or S4134D full-length mouse PC1 in HEK293T cells; co-immunoprecipitation from lysates"}}, "note": "No constants are given. Whether binding was seen depends on the method and setting. In cells and extracts the contact can be indirect. Some results given as binding are weak or reduced against the parent protein; the word gives no strength.", "data": [{"binder": "polycystin-2 (PC2) (protein, UniProt Q13563 1-968) MVNSSRVQPQQPGDAKRPPAPRAPDPGRLMAGCAAVGASLAAPGGLCEQRGLEIEMQRIRQAAARDPPAGAAASPSPPLSSCSRQAWSRDNPGFEAEEEEEEVEGEEGGMVVEMDVEWRPGSRRSAASSAVSSVGARSRGLGGYHGAGHPSGRRRRREDQGPPCPSPVGGGDPLHRHLPLEGQPPRVAWAERLVRGLRGLWGTRLMEESSTNREKYLKSVLRELVTYLLFLIVLCILTYGMMSSNVYYYTRMMSQLFLDTPVSKTEKTNFKTLSSMEDFWKFTEGSLLDGLYWKMQPSNQTEADNRSFIFYENLLLGVPRIRQLRVRNGSCSIPQDLRDEIKECYDVYSVSSEDRAPFGPRNGTAWIYTSEKDLNGSSHWGIIATYSGAGYYLDLSRTREETAAQVASLKKNVWLDRGTRATFIDFSVYNANINLFCVVRLLVEFPATGGVIPSWQFQPLKLIRYVTTFDFFLAACEIIFCFFIFYYVVEEILEIRIHKLHYFRSFWNCLDVVIVVLSVVAIGINIYRTSNVEVLLQFLEDQNTFPNFEHLAYWQIQFNNIAAVTVFFVWIKLFKFINFNRTMSQLSTTMSRCAKDLFGFAIMFFIIFLAYAQLAYLVFGTQVDDFSTFQECIFTQFRIILGDINFAEIEEANRVLGPIYFTTFVFFMFFILLNMFLAIINDTYSEVKSDLAQQKAEMELSDLIRKGYHKALVKLKLKKNTVDDISESLRQGGGKLNFDELRQDLKGKGHTDAEIEAIFTKYDQDGDQELTEHEHQQMRDDLEKEREDLDLDHSSLPRPMSSRSFPRSLDDSEEDDDEDSGHSSRRRGSISSGVSYEEFQVLVRRVDRMEHSIGSIVSKIDAVIVKLEIMERAKLKRREVLGRLLDGVAEDERLGRDSEIHREQMERLVREELERWESDDAASQISHGLGTPVGLNGQPRPRSSRPSSSQSTEGMEGAGGNGSSNVHV", "values": [{"measurement": "binding", "setting": "[1]", "value": "binds"}, {"measurement": "binding", "setting": "[2]", "value": "binds"}]}]}
